The assay concerns the target T1, MEX-3C (UniProt Q5U5Q3).
T1 sequence: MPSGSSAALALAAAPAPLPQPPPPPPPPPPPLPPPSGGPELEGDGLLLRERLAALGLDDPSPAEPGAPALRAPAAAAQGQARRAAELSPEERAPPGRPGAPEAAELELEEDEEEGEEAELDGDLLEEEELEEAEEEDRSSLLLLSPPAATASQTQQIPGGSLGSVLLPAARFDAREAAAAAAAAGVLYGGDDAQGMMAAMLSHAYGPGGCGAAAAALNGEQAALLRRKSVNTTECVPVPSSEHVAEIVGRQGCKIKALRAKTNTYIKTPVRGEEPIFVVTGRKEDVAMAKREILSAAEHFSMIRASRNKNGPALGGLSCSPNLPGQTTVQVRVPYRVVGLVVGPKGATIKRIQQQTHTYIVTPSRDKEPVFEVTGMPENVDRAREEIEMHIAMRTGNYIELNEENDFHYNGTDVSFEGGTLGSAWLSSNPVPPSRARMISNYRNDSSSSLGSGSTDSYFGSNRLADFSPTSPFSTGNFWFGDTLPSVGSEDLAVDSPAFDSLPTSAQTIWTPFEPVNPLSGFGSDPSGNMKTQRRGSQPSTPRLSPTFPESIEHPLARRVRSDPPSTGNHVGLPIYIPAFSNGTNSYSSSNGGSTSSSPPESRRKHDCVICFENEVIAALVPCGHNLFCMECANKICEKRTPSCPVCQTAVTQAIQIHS
In words: co-IP; MEX-3C immunoprecipitated from transfected HEK293T lysate (1% NP-40 in TBS) in the presence of 20 U ml^-1 RNase-I; immunoblot of endogenous deadenylase subunits.

Protein sequences, listed by entry. Tags and fused reporters are not part of them. Lines headed by an entry give the natural chain unless they say otherwise; changes in a name come on top.
UniProt Q504Q3: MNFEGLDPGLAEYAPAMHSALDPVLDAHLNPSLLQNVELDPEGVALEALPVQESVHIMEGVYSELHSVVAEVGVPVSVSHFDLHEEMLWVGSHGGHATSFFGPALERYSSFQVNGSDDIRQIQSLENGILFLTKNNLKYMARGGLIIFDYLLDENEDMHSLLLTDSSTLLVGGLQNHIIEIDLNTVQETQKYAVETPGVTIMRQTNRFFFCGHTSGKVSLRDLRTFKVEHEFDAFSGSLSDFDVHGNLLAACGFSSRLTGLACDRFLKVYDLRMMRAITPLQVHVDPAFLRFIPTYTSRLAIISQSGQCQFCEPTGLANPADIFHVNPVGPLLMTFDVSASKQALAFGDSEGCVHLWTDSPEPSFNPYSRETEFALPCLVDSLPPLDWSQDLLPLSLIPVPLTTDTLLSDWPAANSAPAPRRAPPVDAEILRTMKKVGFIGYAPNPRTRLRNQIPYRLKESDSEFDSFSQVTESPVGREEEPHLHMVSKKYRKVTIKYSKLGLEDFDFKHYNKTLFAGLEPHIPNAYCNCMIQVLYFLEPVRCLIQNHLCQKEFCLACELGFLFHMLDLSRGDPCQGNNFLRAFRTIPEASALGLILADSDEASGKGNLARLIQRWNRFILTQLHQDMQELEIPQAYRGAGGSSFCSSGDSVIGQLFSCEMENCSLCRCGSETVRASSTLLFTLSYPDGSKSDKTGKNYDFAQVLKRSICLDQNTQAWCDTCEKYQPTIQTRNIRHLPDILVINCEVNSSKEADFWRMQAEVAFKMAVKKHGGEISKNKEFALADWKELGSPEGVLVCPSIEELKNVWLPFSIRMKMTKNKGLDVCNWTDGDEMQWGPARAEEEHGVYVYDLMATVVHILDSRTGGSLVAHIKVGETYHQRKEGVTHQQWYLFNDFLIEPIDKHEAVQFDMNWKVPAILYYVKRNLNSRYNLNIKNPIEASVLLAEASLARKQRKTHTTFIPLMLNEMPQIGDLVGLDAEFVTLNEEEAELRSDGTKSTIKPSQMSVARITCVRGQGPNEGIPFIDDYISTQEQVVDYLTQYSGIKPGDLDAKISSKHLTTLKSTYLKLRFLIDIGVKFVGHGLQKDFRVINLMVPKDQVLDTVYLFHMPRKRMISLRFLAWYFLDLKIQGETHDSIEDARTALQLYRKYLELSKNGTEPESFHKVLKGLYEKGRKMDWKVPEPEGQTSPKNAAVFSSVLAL

These are yes or no findings as the source states them, for the method shown. In cells and extracts the contact can be indirect. Some results given as binding are weak or reduced against the parent protein; the word gives no strength.

For “PAN2-PAN3 deadenylation complex (from UniProt Q504Q3 1-1202; Q58A45 1-887)”, the binding entry is recorded as “binds”.

The values are drawn from article PMC4617606.
